Laboratory results taken from patent US20020045591A1, “Methods and therapeutic compositions for treating cancer” (priority 1998, published 2002).
Results are given in words; binding and its absence hold for the method and conditions named. Binding seen in cells or lysates may run through a third protein. Some results given as binding are weak or reduced against the parent protein; the word gives no strength.

By UniProt entry, the sequences of proteins in these tests, tags left out. Where a name states a change or a piece, a line headed by the entry shows the natural chain unless it says otherwise. Residues count along the entry.
UniProt Q02248, residues 2-781: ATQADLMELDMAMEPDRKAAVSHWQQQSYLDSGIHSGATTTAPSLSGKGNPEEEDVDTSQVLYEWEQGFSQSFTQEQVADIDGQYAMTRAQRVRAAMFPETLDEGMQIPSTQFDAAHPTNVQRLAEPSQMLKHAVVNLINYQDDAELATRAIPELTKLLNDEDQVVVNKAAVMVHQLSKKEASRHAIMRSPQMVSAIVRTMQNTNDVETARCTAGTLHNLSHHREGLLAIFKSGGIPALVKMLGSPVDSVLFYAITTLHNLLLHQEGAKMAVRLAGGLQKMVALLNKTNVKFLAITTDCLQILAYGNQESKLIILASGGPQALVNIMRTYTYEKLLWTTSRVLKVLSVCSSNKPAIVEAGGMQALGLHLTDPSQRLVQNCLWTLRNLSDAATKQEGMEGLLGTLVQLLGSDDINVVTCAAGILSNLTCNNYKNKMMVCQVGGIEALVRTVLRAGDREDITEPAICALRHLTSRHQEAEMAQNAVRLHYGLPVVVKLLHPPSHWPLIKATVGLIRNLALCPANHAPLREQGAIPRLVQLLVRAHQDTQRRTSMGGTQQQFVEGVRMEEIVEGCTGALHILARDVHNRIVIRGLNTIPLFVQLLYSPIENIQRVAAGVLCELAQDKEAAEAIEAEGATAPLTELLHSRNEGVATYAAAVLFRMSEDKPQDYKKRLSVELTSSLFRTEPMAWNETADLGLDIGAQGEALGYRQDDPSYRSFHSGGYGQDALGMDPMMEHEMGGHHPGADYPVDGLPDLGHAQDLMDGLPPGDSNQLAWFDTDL
UniProt B2KI42: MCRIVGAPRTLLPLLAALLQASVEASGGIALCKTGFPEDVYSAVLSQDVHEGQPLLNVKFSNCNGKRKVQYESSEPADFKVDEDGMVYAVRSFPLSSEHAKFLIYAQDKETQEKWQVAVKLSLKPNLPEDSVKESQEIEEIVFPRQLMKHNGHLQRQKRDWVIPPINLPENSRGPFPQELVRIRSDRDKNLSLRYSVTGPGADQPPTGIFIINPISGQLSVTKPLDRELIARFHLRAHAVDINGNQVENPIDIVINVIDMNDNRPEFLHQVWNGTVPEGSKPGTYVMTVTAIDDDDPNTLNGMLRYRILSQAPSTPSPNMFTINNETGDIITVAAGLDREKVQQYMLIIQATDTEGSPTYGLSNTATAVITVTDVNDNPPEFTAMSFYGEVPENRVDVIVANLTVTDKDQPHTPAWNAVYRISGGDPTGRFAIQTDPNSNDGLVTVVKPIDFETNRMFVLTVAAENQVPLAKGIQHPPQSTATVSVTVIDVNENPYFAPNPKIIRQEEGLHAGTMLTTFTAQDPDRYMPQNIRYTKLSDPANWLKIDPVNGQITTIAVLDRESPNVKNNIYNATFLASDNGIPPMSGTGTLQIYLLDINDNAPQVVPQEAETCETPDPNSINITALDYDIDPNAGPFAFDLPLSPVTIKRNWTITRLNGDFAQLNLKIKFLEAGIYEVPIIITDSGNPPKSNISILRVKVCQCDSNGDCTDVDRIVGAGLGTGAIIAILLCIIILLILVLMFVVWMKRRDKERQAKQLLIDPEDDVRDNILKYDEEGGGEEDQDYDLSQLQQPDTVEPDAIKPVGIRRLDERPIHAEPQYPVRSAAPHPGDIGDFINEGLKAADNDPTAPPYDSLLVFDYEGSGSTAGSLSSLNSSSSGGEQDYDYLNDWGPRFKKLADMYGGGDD

What was measured:
[1] = target: Mouse β-catenin (transfected cDNA) (mouse) (UniProt Q02248); test: competition co-immunoprecipitation: anti HA IP of HA-LEF-1, immunoblot anti β-catenin, CHO cells; competitor HA-LEF-1
[2] = target: Mouse β-catenin (transfected cDNA) (mouse) (UniProt Q02248); test: competition co-immunoprecipitation: anti HA IP of HA-LEF-1, immunoblot anti β-catenin, CHO cells with increasing N-cadherin tail cDNA; competitor HA-LEF-1

For “N-cadherin cytoplasmic tail tagged with a Flag epitope (from UniProt B2KI42 746-906)”, the binding [1] was “binds” and the binding [2] was “binds”.
